PubChem BioAssay AID1224830 – NIAID – 2016
In all, the deposit lists about 18,000 reagents; shown is an unselected part. About 2,900 of all reagents (16%) count as active. 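Calls are made per well; low scores hint the gene aids the LPS response, high scores that it dampens it.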 Repeated entries: four replicate wells of each siRNA pool. Reagent sequences are not shown.

Screen: 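Genes whose knock-down alters the TNF-alpha reporter response to LPS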 (primary screen)
System: human THP-1 monocytic leukaemia cells, TNF dual-luciferase reporter clone, PMA-differentiated to macrophage-like cells
Knock-down reagent: siRNA pool against human genes, 50 nM
Duration: LPS for 4 h, given about 3 days after siRNA transfection
Treatment: bacterial LPS (TLR4 ligand), 10 ng/ml
Read-out: 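Ratio of firefly to renilla light, scaled to the plate median and expressed as a robust z-score per replicate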
Scale: TNF reporter robust z-score: higher = stronger TNF reporter response to LPS
Hit rule: 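a well is active when its z-score exceeds 2.8 or falls below -1.5; control wells carry no call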

target | TNF reporter robust z-score | Outcome
CSNK1G2-AS1 | 0.56 | inactive
CSNK1G2-AS1 | 1.24 | inactive
CSNK1G2-AS1 | 1.01 | inactive
CSNK1G2-AS1 | 1.2 | inactive
GNGT2 | -0.52 | inactive
GNGT2 | -0.17 | inactive
GNGT2 | 0.04 | inactive
GNGT2 | 1.04 | inactive
MYL11 | -1.2 | inactive
MYL11 | -0.22 | inactive
MYL11 | -0.91 | inactive
MYL11 | -0.67 | inactive
PAK3 | 0.47 | inactive
PAK3 | 0.12 | inactive
PAK3 | 1.38 | inactive
PAK3 | 1.26 | inactive
DHDH | -0.45 | inactive
DHDH | -0.29 | inactive
DHDH | -0.24 | inactive
DHDH | -0.52 | inactive
CDKN2C | 1.03 | inactive
CDKN2C | 0.69 | inactive
CDKN2C | 0.4 | inactive
CDKN2C | 0.37 | inactive
HINT1 | 0.94 | inactive
HINT1 | 2.06 | inactive
HINT1 | 2.19 | inactive
HINT1 | 1.32 | inactive
CDK5R1 | 0.03 | inactive
CDK5R1 | -0.07 | inactive
CDK5R1 | -0.2 | inactive
CDK5R1 | -0.04 | inactive
OR56A1 | -0.56 | inactive
OR56A1 | -0.79 | inactive
OR56A1 | 0 | inactive
HDHD2 | -1.25 | inactive
HDHD2 | -0.96 | inactive
HDHD2 | -1.34 | inactive
HDHD2 | -0.97 | inactive
TMPRSS4 | -0.13 | inactive
TMPRSS4 | 0.19 | inactive
TMPRSS4 | 0.58 | inactive
TMPRSS4 | 0.56 | inactive
TPRN | -1.37 | inactive
TPRN | -0.79 | inactive
TPRN | -1.06 | inactive
TPRN | -0.8 | inactive
ZNF462 | -0.85 | inactive
ZNF462 | -1.13 | inactive
ZNF462 | -1.63 | active
ZNF462 | -1.2 | inactive
PTP4A1 | 0.13 | inactive
PTP4A1 | 0 | inactive
PTP4A1 | -0.03 | inactive
PTP4A1 | -0.62 | inactive
GSTZ1 | -0.95 | inactive
GSTZ1 | -0.54 | inactive
GSTZ1 | -0.86 | inactive
GSTZ1 | 0.28 | inactive
MED9 | -0.6 | inactive
MED9 | -0.55 | inactive
MED9 | -0.31 | inactive
MED9 | 0.89 | inactive
CCDC127 | 1.69 | inactive
CCDC127 | 1.11 | inactive
CCDC127 | 1.8 | inactive
CCDC127 | 2.99 | active
WDTC1 | -0.15 | inactive
WDTC1 | -0.21 | inactive
WDTC1 | -0.01 | inactive
WDTC1 | -0.19 | inactive
HLA-DRB3 | 0.12 | inactive
HLA-DRB3 | 1.27 | inactive
HLA-DRB3 | -0.02 | inactive
HLA-DRB3 | -0.59 | inactive
